Assay results taken from PubChem BioAssay AID1259415 (National Center for Advancing Translational Sciences (NCATS), 2018).
Out of some 410,000 compounds screened, about 18,000 (4.4%) were called active. The inconclusive results got no clear call from the source; some entries with a clear call stand among them for comparison. Rule as the data show it: active = activity change below about -60%; inconclusive = no clear call, values can overlap the other calls; inactive = above about -39%.

Experiment: qHTS Assay for inhibitors of the human cytomegalovirus (HCMV)
Conditions: HFF cells, HCMV-luciferase reporter, 72 h; at 57.5 µM; stronger effect = lower value
In short: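 Two compound doses tested in HFFs infected with HCMV-luciferase, MOI 1 PFU/cell, 72 h at 37C. Lysate luminescence read with OneGlo; data normalized against buffer-only and 10uM Salinomycin inhibitor controls.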
% is scaled to controls: 0 for no effect and ±100 for the full control effect.

Structure (SMILES) | activity change, negative = inhibition
N=c1c2c(ncn1CCCO)Oc1ccc3ccccc3c1C2c1ccccc1 (stereo unspecified) | inactive: 57.7%
Cc1ccc(CCC(=O)Nc2ncc(Cc3cc(Cl)ccc3Cl)s2)o1 | active: -89.7%
Cc1cccc(NC(=O)Cn2c(=O)n(CCCCCC(=O)NCc3ccc4c(c3)OCO4)c(=O)c3sccc32)c1 | inactive: -21.6%
COc1ccc(C(=O)Nc2ccc(N3CCCCC3)cc2)cc1Br | inconclusive: -40.5%
CCOC(=O)C1(CCc2ccccc2)CCN(C(=O)[C@@H]2C[C@@H](C)NC(=S)N2)CC1 | inactive: -0.685%
O=C(N/N=C/c1ccc([N+](=O)[O-])cc1)c1ccccc1OCc1ccccc1 | inconclusive: -49.9%
N#Cc1nc(COc2ccc(Cl)cc2)oc1NCc1ccc2c(c1)OCO2 | inactive: 2.98%
COc1ccc(N=N/C(=C\O)C(=O)c2cccs2)cc1 | active: -92.5%
CCN1CCN(S(=O)(=O)c2c(C)[nH]c(C)c2C(=O)N2CCCCC2)CC1 | inconclusive: -45.7%
CCOC(=O)Cn1c(=O)n(C2CCCCC2)c2nc(-c3c(F)cccc3Cl)nc(C(N)=O)c21 | active: -81.8%
Cc1ccc(-c2cn3ccc(C)cc3n2)cc1 | inconclusive: -42.6%
COc1nc(OC)nc(N2CCC(C(=O)NCc3ccco3)CC2)n1 | inactive: 14.2%
Cc1cc(C)cc(NC(=O)CSc2nc3nccnc3c(=O)n2CCc2c[nH]c3ccccc23)c1 | inconclusive: -41.3%
CCc1cccc(-n2c(=O)c3cccnc3n2CC(=O)NCc2ccc(C)cc2)c1 | inconclusive: -54.1%
CC1CCCCN1C(=O)COC(=O)c1ccc2ccccc2n1 (stereo unspecified) | inconclusive: -44%
O=C(CCc1nc2ccccc2c(=O)[nH]1)NNC(=O)c1ccc(Cl)cc1 | inconclusive: -41.1%
CC(=O)N1CCN(CC(=O)Nc2ccccc2Sc2ccc(Cl)cc2)CC1 | active: -70.7%
O=C(Nc1cccc(Cl)c1)c1cc2c(=O)n3ccccc3nc2s1 | inconclusive: -51.1%
O=c1nc(/C=C/c2cccn2-c2ccc([N+](=O)[O-])cc2)cc(C(F)(F)F)[nH]1 | inactive: -23.7%

Structure (SMILES) | activity change, negative = inhibition
COc1cc(C(=O)N/N=C/c2sc(=O)n(-c3ccccc3)c2Cl)cc(OC)c1OC | inconclusive: -59.6%
COc1ccc(N(CC(=O)NC2CCCCC2)C(=O)CNC(=O)c2ccco2)cc1OC | inactive: 3.32%
COc1ccc(OC)c(C(=O)CCCC(=O)c2cc(OC)ccc2OC)c1 | active: -61.5%
COc1ccc(-c2cn3nc(N4CCC(C(=O)Nc5cc(Cl)ccc5C)CC4)sc3n2)cc1 | inconclusive: 0%
CC(C)(C)c1ccc(OCC(=O)NCC2(N3CCOCC3)CCCCC2)cc1 | active: -72.7%
COc1c(C)cc(C(=O)C2CCCN(C(=O)c3cc(C)on3)C2)cc1C (stereo unspecified) | inconclusive: -51.1%
CCOC(=O)C(C(=O)c1ccccc1)C1CC(C)NC(=S)N1 (stereo unspecified) | inconclusive: -47.4%
CCC(CC)C(=O)Nc1nnc(S(=O)(=O)N2CCCC2)s1 | inconclusive: -50.2%
Oc1[nH]c2ccc(Br)cc2c1N=NC(=S)NCC1CCCO1 (stereo unspecified) | inconclusive: -54.1%
COc1ccccc1NC(=O)Nc1cc(NC(=O)Nc2ccccc2OC)c(C)nc1C | inconclusive: -52%
Cc1ccc(C(=O)c2c3ccc(N)cc3nn2CCC(N)=O)cc1 | inconclusive: -47.9%
CC1CCN(c2ncnc3c2c(-c2ccccc2)cn3-c2ccc(Br)cc2)CC1 | inconclusive: -41.6%
CCOc1ccc(NC(=O)NC2CCCCCCC2)cc1 | inactive: 34.6%
O=C(NNc1nc2ccc(F)cc2s1)c1cccc(F)c1 | active: -81.4%
Cc1nc2[nH]c(=S)[nH]c2c(=O)[nH]1 | active: -64%
CN(C)C(=O)c1cc2cc(Br)ccc2s1 | inconclusive: -46.9%
CC(C)n1nc(C(=O)Nc2ccccc2N2CCOCC2)c2ccccc2c1=O | inconclusive: -52.3%
O=C(NNC(=S)NCC1CCCO1)c1cc(Br)ccc1Cl (stereo unspecified) | inconclusive: -49.6%
CCOc1ccccc1CNc1ccc(O)cc1 | inconclusive: -50.3%

Part of the list above, as tab-separated lines:
Structure (SMILES)	activity change, negative = inhibition
CC(C)n1nc(C(=O)Nc2ccccc2N2CCOCC2)c2ccccc2c1=O	inconclusive: -52.3%
O=C(NNC(=S)NCC1CCCO1)c1cc(Br)ccc1Cl (stereo unspecified)	inconclusive: -49.6%
CCOc1ccccc1CNc1ccc(O)cc1	inconclusive: -50.3%

Later entries

Structure (SMILES) | activity change, negative = inhibition
CC1(O)C(=O)C2(C)C=CC1C1C(=O)N(c3ccccc3)C(=O)C12 (stereo unspecified) | inactive: -1.71%
COC(=O)[C@]12CCCCC=C1N(CCC1=CCCCC1)C(=O)[C@H](CC(=O)N1CCCC1)C2 | inactive: -32.2%
CN(C(=O)COC(=O)/C=C/c1ccc2ccccc2n1)C1CCS(=O)(=O)C1 (stereo unspecified) | inconclusive: -49.3%
Cc1nc(-c2ccc(Cl)cc2)sc1C(=O)NN | inconclusive: -48.9%
Cc1c(C(=O)Nc2ccc(F)c(C(F)(F)F)c2)sc2nc(-c3ccccc3)cn12 | active: -97.7%
CCOc1ccc(S(=O)(=O)NCCc2c(C)[nH]c3c(Cl)cccc23)cc1C | inconclusive: -46.9%
Cc1ccccc1CNC(=O)c1ccccc1N(C)S(=O)(=O)c1ccccc1 | inactive: 29.5%
CCOc1ccc(CCNC(=O)CCCn2nc(C)c3c(C)n(-c4ccccc4)nc3c2=O)cc1 | inconclusive: -50.7%
O=C(CSc1nnc(CNC(=O)c2cccc(C(F)(F)F)c2)o1)NCc1ccco1 | inactive: 27.7%
Cc1csc2c(N3CCN(C(=O)c4ccc(C(C)(C)C)cc4)CC3)ncnc12 | active: -63.1%
CC(OC(=O)C1CC(=O)N(Cc2ccccc2)C1)C(=O)Nc1cccc(C#N)c1 (stereo unspecified) | inactive: 44.8%
CC1CCN(S(=O)(=O)c2ccc3c(c2)N(CC(=O)NCCCN2CCCCC2)C(=O)CS3)CC1 | inconclusive: -56.2%
c1ccc(-n2cnc3ccccc32)cc1 | active: -92.8%
Cc1ccccc1NC(=O)Oc1cccc(OC(=O)c2ccccc2)c1 | inconclusive: -60%
CCCCC[C@@H]1C=C(C(=O)O)[C@H](c2ccc(CC)cc2)N1S(=O)(=O)c1ccc(C)cc1 | inactive: -3.59%
CC(=O)Nc1ccc(NC(=O)/C(Cl)=C/c2ccccc2)cc1 | inactive: -0.462%
Cc1nn(C)cc1CNC(=O)c1cc2n(n1)C(C(F)(F)F)CC(c1cccs1)N2 (stereo unspecified) | inconclusive: -43.2%
CC(C)c1ccccc1NC(=O)CNCCc1ccc(C(F)(F)F)cc1 | inconclusive: -47.8%
